Where a name gives a salt, the structure may show the parent alone. Some of the results follow. The calls rarely recur for the same compound in another form.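 Kinases, fused to nanoluciferase, were expressed in K562 cells; luminescence was measured every 4 h from 2 to 18 h as percent of control (DMSO = 100%, positive control = 0%). A time point is decreased if signal falls significantly (2 sigma). Hits were called by the authors by a rule that is not shown; the count of time points alone does not decide it.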
The compounds below were run against STK38 (UniProt Q15208) (assay: number of time points (of 5) at which kinase-Nluc abundance scored as decreased, DMSO-normalised (count); higher = more persistent destabilization). Conditions: K562; 2-18 h.

Sequences of proteins named here, by UniProt entry; tags and fusion partners are left off. A change or cut given only in a name is not applied to a line headed by its entry.
UniProt Q15208: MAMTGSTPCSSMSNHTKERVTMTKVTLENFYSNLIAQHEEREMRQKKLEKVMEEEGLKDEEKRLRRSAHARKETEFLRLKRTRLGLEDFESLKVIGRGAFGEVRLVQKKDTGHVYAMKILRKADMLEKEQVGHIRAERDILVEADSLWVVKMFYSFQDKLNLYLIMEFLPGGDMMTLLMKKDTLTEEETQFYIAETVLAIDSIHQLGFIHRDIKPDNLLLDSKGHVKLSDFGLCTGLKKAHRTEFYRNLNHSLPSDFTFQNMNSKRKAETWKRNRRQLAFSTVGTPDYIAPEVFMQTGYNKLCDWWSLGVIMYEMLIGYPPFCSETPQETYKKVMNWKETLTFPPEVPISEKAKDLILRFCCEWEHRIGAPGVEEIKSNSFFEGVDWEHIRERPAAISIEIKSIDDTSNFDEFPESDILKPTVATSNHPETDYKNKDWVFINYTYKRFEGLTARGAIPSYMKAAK

Row | Structure (SMILES) | number of time points
1 | COc1ccc(Br)c(C=O)c1O [6-Bromo-2-hydroxy-3-methoxybenzaldehyde] (10 µM) | 0
2 | O=C1C=CC2=C3c4cc(O)c(O)cc4CC3(O)COC2=C1O (configuration not stated) [Hematein] (10 µM) | 0
3 | Cc1cccc(CC(=O)N2CCc3c2ccc(-c2cn(C)c4ncnc(N)c24)c3F)n1 (10 µM) | 0
4 | COCCOc1cnc2ccn([C@H](C)c3nnc4c(F)cc(-c5cnn(C)c5)cn34)c(=O)c2c1 (10 µM) | 0
5 | Cn1cc(C2=C(c3ccc(Cl)cc3Cl)C(=O)NC2=O)c2ccccc21 (10 µM) | 0
6 | COc1cc(N2CCC(N3CCN(C)CC3)CC2)ccc1Nc1ncnc(Nc2ccccc2S(=O)(=O)C(C)C)n1 (10 µM) | 0
7 | COc1c(Nc2ncc(Cl)c(N[C@H]3[C@@H](C(N)=O)[C@@H]4C=C[C@H]3C4)n2)ccc2c1CC[C@@H](N1CCOCC1)CC2 (10 µM) | 0
8 | Cc1ccc(NC(=O)N2CCN(c3nc(N)nc4sc(-c5cccnc5)nc34)CC2)cc1 [PI4KIII beta inhibitor 3] (10 µM) | 0
9 | CNc1cc2c(Nc3cccc(Br)c3)ncnc2cn1 (10 µM) | 0
10 | CC(C)n1c(CO)nc2c(F)cc(-c3nc(Nc4ccc(CN5CCNCC5)cn4)ncc3F)cc21 (10 µM) | 1
11 | CN1CCC(Nc2ccc(C(=O)Nc3cc(-c4ccc5c(c4)OCO5)[nH]n3)cc2)CC1 (10 µM) | 0
12 | CNC(=O)CN1CCC(Oc2cc3c(Nc4cccc(Cl)c4F)ncnc3cc2OC)CC1 [Sapitinib] (10 µM) | 0
13 | O=C(O)c1c[nH]c2cc(Cl)c(-c3ccc(C4(O)CCC4)cc3)cc12 (10 µM) | 0
14 | COc1cc(N2CCC(O)CC2)ccc1Nc1nc(Nc2ccccc2S(=O)(=O)C(C)C)c2[nH]cnc2n1 (10 µM) | 0
15 | O=c1c(O)c(-c2ccc(O)c(O)c2)oc2cc(O)c(O)c(O)c12 [Quercetagetin] (10 µM) | 0
16 | Cc1ncsc1-c1ccc(CNC(=O)[C@@H]2C[C@@H](O)CN2C(=O)[C@@H](NC(=O)COCCOc2ccc(-c3cc(Nc4ccc(OC(F)(F)F)cc4)ncn3)cc2)C(C)(C)C)cc1 (2.5 µM) | 1

Row | Structure (SMILES) | number of time points
17 | COc1cc(Nc2ccnc3ccc(Br)cc23)cc(OC)c1OC (2.5 µM) | 0
18 | Cc1ccc2c(NS(=O)(=O)c3ccccc3Cl)cccc2c1Oc1ncccc1-c1ccnc(N[C@H]2CCCNC2)n1 (2.5 µM) | 0
19 | CC(C)c1cc2c(c(O)c1O)[C@@]13CCCC(C)(C)[C@@H]1C[C@@H]2OC3=O [Carnosol] (2.5 µM) | 0
20 | Cc1nc2c(NCc3cccc(S(C)(=O)=O)c3)nccn2c1-c1ccc(O)c(F)c1 (10 µM) | 0
21 | CC(C)n1cnc2c(Nc3cccc(Cl)c3)nc(N[C@H]3CCCC[C@@H]3N)nc21 (2.5 µM) | 0
22 | O=c1cc(N2CCOCC2)oc2c(-c3cccc4c3sc3ccccc34)cccc12 (10 µM) | 0
23 | C[C@@H]1COC(Nc2ccc3ncnc(Nc4ccc(OCc5nccs5)c(Cl)c4)c3c2)=N1 [Varlitinib] (10 µM) | 0
24 | Cc1cncc2cccc(S(=O)(=O)N3CCCNC[C@@H]3C)c12 [H-1152 (dihydrochloride)] (10 µM) | 0
25 | CCC[C@H](C)Oc1nc(N)c2[nH]c(=O)n(CCCCCN3CCCCC3)c2n1 (10 µM) | 0
26 | CC(C)(Oc1ccc(Cl)cc1)C(=O)Nc1ccc(OCc2ccc(C#N)cc2)cc1 [AMPK activator 4] (10 µM) | 0
27 | Cc1cc(N2CCOCC2)ccc1Nc1nc(NC2CCCCC2)c2[nH]cnc2n1 (10 µM) | 0
28 | CC(ONC(=O)c1cc(C(F)(F)F)cc(C(F)(F)F)c1)C(=O)Nc1ccc(Cl)cc1 (configuration not stated) (2.5 µM) | 0
29 | O=S(=O)(c1ccc(O)cc1O)N1Cc2cc(O)cc(O)c2C1 (10 µM) | 0
30 | CN1CCN(c2ccc(-n3cc(-c4ccncc4OCC4CCNCC4)cn3)cc2)CC1 [MELK-8a (hydrochloride)] (10 µM) | 1
31 | CCCCC(=O)OCC(=O)[C@]1(O)Cc2c(O)c3c(c(O)c2[C@@H](O[C@H]2C[C@H](NC(=O)C(F)(F)F)[C@H](O)[C@H](C)O2)C1)C(=O)c1c(OC)cccc1C3=O [Valrubicin] (10 µM) | 0
32 | CC(C)=CCC[C@](C)(O[C@@H]1O[C@H](CO[C@@H]2O[C@H](CO)[C@@H](O)[C@H](O)[C@H]2O)[C@@H](O)[C@H](O)[C@H]1O)[C@H]1CC[C@]2(C)[C@@H]1[C@H](O)C[C@@H]1[C@@]3(C)CC[C@H](O[C@@H]4O[C@H](CO)[C@@H](O)[C@H](O)[C@H]4O[C@@H]4O[C@H](CO)[C@@H](O)[C@H](O)[C@H]4O)C(C)(C)[C@@H]3CC[C@]12C [Ginsenoside Rb1] (10 µM) | 0

Part of the list above in a different format.
Row,Structure (SMILES),number of time points
14,COc1cc(N2CCC(O)CC2)ccc1Nc1nc(Nc2ccccc2S(=O)(=O)C(C)C)c2[nH]cnc2n1 (10 µM),0
32,CC(C)=CCC[C@](C)(O[C@@H]1O[C@H](CO[C@@H]2O[C@H](CO)[C@@H](O)[C@H](O)[C@H]2O)[C@@H](O)[C@H](O)[C@H]1O)[C@H]1CC[C@]2(C)[C@@H]1[C@H](O)C[C@@H]1[C@@]3(C)CC[C@H](O[C@@H]4O[C@H](CO)[C@@H](O)[C@H](O)[C@H]4O[C@@H]4O[C@H](CO)[C@@H](O)[C@H](O)[C@H]4O)C(C)(C)[C@@H]3CC[C@]12C [Ginsenoside Rb1] (10 µM),0

Reference: the supplement of paper PMC12823440, “Inhibitors supercharge kinase turnover through native proteolytic circuits” (Nature, 2025)
